Results: the supplement of paper PMC10849652
The list shows a part of the results. Residues, ends and D or L forms follow the SMILES beside them. *: point of attachment. Cbz = O=C(OCc1ccccc1)*

Protein sequences, listed by entry. Tags and fused reporters are not part of them. Lines headed by an entry give the natural chain unless they say otherwise; changes in a name come on top.
UniProt P28288: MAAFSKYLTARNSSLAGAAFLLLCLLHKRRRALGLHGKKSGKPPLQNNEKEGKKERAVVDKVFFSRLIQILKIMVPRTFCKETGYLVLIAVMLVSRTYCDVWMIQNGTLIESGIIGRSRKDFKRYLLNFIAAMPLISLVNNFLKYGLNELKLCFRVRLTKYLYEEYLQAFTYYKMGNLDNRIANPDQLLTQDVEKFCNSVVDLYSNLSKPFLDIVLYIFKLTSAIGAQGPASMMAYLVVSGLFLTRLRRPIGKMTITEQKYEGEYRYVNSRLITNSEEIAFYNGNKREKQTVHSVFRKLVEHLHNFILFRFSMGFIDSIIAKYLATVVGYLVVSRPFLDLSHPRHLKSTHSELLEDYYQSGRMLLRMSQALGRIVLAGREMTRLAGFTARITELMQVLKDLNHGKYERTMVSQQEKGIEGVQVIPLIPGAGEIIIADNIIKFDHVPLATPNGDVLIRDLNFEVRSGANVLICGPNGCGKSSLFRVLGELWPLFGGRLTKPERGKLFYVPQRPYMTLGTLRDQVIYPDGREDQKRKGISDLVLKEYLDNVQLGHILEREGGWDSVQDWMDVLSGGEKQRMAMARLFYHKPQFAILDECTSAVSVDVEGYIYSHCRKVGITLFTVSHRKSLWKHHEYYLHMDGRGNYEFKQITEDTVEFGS
UniProt P42765: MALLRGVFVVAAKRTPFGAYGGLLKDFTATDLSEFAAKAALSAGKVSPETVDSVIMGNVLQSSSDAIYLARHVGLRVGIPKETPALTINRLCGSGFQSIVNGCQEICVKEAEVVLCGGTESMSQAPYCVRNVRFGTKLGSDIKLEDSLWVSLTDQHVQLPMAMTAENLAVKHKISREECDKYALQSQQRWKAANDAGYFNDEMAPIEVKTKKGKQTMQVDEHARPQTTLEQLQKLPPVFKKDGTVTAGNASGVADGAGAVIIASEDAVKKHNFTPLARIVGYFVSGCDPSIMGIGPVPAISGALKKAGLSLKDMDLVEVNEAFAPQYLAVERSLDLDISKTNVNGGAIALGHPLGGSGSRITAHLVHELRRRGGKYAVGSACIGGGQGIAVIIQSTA
UniProt Q9H568: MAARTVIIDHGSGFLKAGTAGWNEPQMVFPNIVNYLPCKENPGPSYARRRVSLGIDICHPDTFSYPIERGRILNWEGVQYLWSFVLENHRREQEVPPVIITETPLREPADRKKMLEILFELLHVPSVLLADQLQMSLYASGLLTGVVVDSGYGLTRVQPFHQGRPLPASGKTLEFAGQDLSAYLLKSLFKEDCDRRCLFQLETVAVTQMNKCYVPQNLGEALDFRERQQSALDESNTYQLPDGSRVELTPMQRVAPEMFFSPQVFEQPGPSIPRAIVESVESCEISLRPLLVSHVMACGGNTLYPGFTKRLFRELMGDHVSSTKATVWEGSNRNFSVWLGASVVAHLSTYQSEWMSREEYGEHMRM
UniProt P61163, whole entry, looked up: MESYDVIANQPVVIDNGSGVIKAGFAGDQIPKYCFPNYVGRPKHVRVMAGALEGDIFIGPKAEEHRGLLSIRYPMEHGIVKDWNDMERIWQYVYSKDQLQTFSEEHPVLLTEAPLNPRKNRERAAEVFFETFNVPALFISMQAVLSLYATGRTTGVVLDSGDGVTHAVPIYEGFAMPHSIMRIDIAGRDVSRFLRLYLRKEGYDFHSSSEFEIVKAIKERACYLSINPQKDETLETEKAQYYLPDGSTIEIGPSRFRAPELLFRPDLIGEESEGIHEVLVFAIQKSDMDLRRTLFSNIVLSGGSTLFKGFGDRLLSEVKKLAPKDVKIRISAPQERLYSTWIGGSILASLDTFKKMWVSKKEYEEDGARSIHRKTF
UniProt O43707, whole entry, looked up: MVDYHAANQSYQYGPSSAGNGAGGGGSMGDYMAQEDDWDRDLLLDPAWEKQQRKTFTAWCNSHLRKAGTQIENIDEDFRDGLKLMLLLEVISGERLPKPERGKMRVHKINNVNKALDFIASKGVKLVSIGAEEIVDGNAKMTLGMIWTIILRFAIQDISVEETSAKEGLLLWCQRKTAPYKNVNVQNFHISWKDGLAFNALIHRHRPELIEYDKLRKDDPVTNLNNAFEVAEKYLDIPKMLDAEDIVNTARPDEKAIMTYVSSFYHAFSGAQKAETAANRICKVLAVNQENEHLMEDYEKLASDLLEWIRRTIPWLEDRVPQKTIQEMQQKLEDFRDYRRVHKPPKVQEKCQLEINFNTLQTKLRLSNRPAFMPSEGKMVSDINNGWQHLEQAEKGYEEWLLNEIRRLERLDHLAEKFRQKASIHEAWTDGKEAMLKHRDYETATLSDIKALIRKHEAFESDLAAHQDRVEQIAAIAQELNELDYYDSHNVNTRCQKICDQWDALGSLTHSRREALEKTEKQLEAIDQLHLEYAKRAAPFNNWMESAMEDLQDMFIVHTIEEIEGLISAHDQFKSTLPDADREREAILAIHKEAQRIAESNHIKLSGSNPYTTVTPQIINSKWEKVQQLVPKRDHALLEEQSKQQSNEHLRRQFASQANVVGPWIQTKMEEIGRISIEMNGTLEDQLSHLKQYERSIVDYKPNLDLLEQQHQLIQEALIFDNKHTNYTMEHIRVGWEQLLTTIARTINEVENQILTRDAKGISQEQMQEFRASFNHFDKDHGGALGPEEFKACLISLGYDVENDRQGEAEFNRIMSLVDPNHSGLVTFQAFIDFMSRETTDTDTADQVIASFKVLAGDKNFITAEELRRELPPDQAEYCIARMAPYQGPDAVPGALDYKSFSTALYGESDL
UniProt Q8NE71: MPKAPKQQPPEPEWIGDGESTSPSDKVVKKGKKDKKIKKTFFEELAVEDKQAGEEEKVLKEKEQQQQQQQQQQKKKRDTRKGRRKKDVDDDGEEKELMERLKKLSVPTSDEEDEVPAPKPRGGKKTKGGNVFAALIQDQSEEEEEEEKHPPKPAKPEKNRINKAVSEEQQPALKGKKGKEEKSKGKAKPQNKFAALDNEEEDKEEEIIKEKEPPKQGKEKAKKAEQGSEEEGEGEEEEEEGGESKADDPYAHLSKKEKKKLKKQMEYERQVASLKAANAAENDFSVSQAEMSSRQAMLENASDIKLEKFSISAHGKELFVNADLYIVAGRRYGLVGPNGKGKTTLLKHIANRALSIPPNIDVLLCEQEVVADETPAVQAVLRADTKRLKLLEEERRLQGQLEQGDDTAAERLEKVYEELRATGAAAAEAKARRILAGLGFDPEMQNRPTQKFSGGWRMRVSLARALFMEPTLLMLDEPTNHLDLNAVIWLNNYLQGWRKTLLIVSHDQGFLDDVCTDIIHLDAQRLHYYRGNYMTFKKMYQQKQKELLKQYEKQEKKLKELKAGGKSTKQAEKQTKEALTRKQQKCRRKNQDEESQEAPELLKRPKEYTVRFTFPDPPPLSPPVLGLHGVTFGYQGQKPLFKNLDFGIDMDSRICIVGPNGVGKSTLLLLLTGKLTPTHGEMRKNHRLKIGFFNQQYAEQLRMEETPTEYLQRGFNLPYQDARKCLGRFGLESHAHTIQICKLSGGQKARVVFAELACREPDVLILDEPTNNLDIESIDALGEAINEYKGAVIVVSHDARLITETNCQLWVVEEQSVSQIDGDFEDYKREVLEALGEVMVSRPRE
UniProt P00813: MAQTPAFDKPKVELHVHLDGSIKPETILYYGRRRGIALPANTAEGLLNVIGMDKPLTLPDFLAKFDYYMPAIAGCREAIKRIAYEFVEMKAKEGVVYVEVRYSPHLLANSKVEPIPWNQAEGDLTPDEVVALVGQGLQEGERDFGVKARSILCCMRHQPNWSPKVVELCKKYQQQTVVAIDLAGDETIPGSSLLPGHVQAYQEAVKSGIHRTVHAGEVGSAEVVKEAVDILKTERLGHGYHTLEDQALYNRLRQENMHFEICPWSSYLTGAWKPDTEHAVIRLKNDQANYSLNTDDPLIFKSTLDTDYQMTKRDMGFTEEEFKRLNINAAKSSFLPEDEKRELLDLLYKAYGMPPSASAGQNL
UniProt O96019, whole entry, looked up: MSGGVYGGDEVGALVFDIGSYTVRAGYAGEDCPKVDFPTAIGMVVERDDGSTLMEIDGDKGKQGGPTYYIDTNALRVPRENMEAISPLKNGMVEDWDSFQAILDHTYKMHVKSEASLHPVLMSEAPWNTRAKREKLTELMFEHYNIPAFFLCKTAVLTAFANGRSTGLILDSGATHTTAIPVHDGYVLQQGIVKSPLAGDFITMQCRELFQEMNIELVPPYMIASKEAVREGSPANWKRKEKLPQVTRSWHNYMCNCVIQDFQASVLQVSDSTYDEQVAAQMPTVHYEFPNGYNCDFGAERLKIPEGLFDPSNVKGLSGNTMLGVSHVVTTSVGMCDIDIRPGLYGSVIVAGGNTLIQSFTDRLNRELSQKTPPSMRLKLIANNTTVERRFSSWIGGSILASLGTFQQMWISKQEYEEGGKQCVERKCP
UniProt Q9Y305: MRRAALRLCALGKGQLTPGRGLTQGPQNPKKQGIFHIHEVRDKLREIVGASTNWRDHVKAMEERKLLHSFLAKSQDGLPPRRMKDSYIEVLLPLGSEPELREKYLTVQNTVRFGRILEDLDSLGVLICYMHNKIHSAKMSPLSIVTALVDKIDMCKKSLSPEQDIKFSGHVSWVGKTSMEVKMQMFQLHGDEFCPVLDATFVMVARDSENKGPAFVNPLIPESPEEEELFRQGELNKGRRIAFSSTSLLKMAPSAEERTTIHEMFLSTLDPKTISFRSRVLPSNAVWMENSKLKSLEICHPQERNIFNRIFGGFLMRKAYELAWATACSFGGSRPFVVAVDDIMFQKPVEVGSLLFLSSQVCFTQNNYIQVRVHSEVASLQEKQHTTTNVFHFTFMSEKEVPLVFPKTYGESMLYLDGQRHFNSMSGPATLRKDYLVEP
UniProt Q03154: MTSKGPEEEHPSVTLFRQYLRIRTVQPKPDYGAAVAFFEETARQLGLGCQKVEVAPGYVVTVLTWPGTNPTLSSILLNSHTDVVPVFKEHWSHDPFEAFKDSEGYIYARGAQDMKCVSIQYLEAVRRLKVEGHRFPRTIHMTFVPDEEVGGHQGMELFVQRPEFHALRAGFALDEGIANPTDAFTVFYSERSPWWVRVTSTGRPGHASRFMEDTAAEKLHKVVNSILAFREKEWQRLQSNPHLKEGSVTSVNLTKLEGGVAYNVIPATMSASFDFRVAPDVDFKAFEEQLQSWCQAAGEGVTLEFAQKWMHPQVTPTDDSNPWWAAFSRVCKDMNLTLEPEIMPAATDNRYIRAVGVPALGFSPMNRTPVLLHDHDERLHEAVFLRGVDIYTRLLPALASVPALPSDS
UniProt Q9NYB9: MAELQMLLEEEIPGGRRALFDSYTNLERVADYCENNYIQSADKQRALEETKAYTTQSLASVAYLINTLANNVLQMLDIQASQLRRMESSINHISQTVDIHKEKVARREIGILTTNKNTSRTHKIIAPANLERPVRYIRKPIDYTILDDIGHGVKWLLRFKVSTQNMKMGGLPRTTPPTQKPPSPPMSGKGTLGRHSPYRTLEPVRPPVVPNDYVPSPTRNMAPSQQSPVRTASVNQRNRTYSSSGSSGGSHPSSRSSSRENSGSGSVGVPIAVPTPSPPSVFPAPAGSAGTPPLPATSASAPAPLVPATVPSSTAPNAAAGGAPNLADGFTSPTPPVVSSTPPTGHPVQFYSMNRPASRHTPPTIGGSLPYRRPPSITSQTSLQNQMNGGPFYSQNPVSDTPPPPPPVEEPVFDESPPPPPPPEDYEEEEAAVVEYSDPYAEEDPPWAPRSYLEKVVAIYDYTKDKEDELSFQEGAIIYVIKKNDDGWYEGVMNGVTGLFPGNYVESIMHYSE
UniProt Q9NUQ8: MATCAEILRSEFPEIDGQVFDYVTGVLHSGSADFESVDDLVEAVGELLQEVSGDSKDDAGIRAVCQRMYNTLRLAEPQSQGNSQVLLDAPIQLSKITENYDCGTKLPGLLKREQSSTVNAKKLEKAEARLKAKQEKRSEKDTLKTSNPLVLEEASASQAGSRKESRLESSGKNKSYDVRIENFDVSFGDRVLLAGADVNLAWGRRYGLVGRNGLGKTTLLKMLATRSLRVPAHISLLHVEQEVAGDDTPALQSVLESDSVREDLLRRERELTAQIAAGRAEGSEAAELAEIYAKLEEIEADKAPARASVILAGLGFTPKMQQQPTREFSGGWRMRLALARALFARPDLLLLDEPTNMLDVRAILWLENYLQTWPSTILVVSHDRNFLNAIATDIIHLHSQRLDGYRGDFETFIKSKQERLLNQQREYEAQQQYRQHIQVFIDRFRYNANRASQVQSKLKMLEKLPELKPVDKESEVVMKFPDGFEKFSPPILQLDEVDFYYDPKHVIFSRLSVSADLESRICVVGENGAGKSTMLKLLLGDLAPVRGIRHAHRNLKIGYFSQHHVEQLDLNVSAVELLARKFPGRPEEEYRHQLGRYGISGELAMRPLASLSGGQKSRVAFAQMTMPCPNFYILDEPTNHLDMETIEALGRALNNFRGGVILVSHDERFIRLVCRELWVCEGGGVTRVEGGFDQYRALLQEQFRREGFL

How the values were obtained:
Assay in all cases: log2 fold change, soluble protein after heating vs DMSO (PISA); higher = thermal stabilisation; K562 cells, 10 uM, 30 min; active = over 0.2 and 3.5 SD of the protein, either way, in both replicates (recomputed)
[1] = compound: C1COCCN1CCN2C3=CC=CC=C3N=C2NC(=O)C4=CC(=CC=C4)[N+](=O)[O-] [IRAK-1-4 Inhibitor I]
Method in brief: (§1)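 Quantification of soluble protein used TMTpro 16plex LC-MS/MS, with channel sums equalised. Samples were the supernatant after 21,000xg for 90 min of pooled aliquots from K562 cells (2×10^6 cells/mL) treated with 10 μM compound for 30 min, heated for 3 min over 48°C-58°C, and extracted in PBS with 0.5% NP-40 at 4°C. Values, from duplicates, describe thermal stability against control samples on a log2 fold-change scale.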

[2] = compound: C=CC(=O)N1CCC[C@@H](n2nc(-c3ccc(Oc4ccccc4)cc3)c3c(N)ncnc32)C1 [ibrutinib]
Method in brief: as §1

[3] = compound: CC(=O)c1cnc2ccc(-c3cc(Cl)c(O)c(Cl)c3)nc2c1N[C@H]1CC[C@H](CN(C)C)CC1
Method in brief: as §1

[4] = compound: CC(C)(C)Cn1c(N)nc2ccc(-c3[nH]c(C(C)(C)C)nc3-c3ccc(F)cc3)nc21 [ralimetinib]
Method in brief: as §1

[5] = compound: CC(C)(O)CC(=O)NCCn1ccc2ncnc(Nc3ccc(Oc4cccc(C(F)(F)F)c4)c(Cl)c3)c21
Method in brief: as §1

[6] = compound: CC(C)C1=C2N=C(C=C(N2N=C1)NCC3=CC=CC=C3)NCCCCCCN
Method in brief: as §1

[7] = compound: CC(C)C[C@@H](C=O)NC(=O)[C@H](CC(C)C)NC(=O)[C@H](CC(C)C)NC(=O)OCc1ccccc1
Method in brief: as §1

[8] = compound: CC(C)N(C[C@H]1O[C@@H](n2cnc3c(N)ncnc32)[C@H](O)[C@@H]1O)[C@H]1C[C@@H](CCc2nc3cc(C(C)(C)C)ccc3[nH]2)C1 [pinometostat]
Method in brief: as §1

[9] = compound: CC1=C(C(CC(=O)N1)C2=CC=C(C=C2)C(F)(F)F)C(=O)NC3=C(C=C4C(=C3)C=NN4)F
Method in brief: as §1

[10] = compound: CC1=C(C2=C(C=C1)C(=O)C3=CC=CC=C3N2CCCN)C
Method in brief: as §1

[11] = compound: CC1=C(C=C(C=C1)NC(=O)C2=CC(=CC=C2)C(C)(C)C#N)NC3=CC4=C(C=C3)N=CN(C4=O)C
Method in brief: as §1

[12] = compound: CC1=C(C=C(C=C1)NC(=O)C2=CC(=CC=C2)N(C)C)NC(=O)C3=CC=C(C=C3)O
Method in brief: as §1

[13] = compound: CC1=CC=C(C=C1)SC2=C3C=C(SC3=CN=C2)C(=O)N
Method in brief: as §1

[14] = compound: CC1=NC(=CC=C1)C2=C(N=C(N2)C(C)(C)C)C3=CC4=NC=CN=C4C=C3
Method in brief: as §1

[15] = compound: CCCCN(Cc1ccc(C(=O)NO)cc1)C(=O)Nc1ccccc1 [Nexturastat A]
Method in brief: as §1

[16] = compound: CCCS(=O)(=O)Nc1ccc(F)c(C(=O)c2c[nH]c3ncc(-c4ccc(Cl)cc4)cc23)c1F [vemurafenib]
Method in brief: as §1

[17] = compound: CCCS(=O)(=O)Nc1ccc(F)c(C(=O)c2c[nH]c3ncc(Cl)cc23)c1F
Method in brief: as §1

[18] = compound: CCCc1cc(C)[nH]c(=O)c1CNC(=O)c1cc(-c2ccnc(N3CCN(C)CC3)c2)cc2c1cnn2C(C)C
Method in brief: as §1

[19] = compound: CCN(CC)Cc1ccc2cc(COC(=O)Nc3ccc(C(=O)NO)cc3)ccc2c1 [givinostat]
Method in brief: as §1

[20] = compound: CCN(CCCOc1ccc2c(Nc3cc(CC(=O)Nc4cccc(F)c4)[nH]n3)ncnc2c1)CCOP(=O)(O)O [barasertib]
Method in brief: as §1

Measured: log2 fold change

ABCB7 isoform 2 (UniProt O75027)
inactive: [1] 0.057 | [2] -0.028 | [3] -0.02 | [4] -0.058 | [5] -0.038 | [6] 0.005 | [7] -0.011 | [8] 0.03 | [9] 0.006 | [10] 0.009 | [11] -0.116 | [12] 0.009 | [13] 0.054 | [14] 0.027 | [15] 0.007 | [16] 0.038 | [17] 0.076 | [18] -0.033 | [19] 0.002 | [20] 0.014

ABCD3 (UniProt P28288)
inactive: [1] 0.006 | [2] -0.019 | [3] 0.017 | [4] -0.016 | [5] 0.079 | [6] 0.211 | [7] -0.05 | [8] 0.006 | [9] -0.026 | [10] 0.091 | [11] -0.022 | [12] -0.004 | [13] -0.037 | [14] 0 | [15] -0.095 | [16] 0.009 | [17] -0.008 | [18] -0.008 | [19] -0.042 | [20] -0.016

ACAA2 (UniProt P42765)
inactive: [1] -0.015 | [2] 0.019 | [3] -0.003 | [4] -0.042 | [5] -0.011 | [6] 0.029 | [7] -0.032 | [8] -0.03 | [9] 0.014 | [10] 0.029 | [11] -0.009 | [12] 0.026 | [13] -0.005 | [14] -0.012 | [15] -0.04 | [16] -0.026 | [17] -0.003 | [18] -0.028 | [19] 0.01 | [20] -0.007

ACTL8 (UniProt Q9H568)
inactive: [1] 0.093 | [2] 0.181 | [3] -0.04 | [4] -0.003 | [5] -0.049 | [6] 0.063 | [7] 0.004 | [8] -0.016 | [9] 0.022 | [10] 0.058 | [11] -0.031 | [12] -0.029 | [13] -0.021 | [14] -0.076 | [15] -0.203 | [16] -0.081 | [17] -0.054 | [18] -0.005 | [19] -0.005 | [20] -0.006

ACTR1A (UniProt P61163)
inactive: [1] 0.019 | [2] 0.012 | [3] 0.044 | [4] -0.011 | [5] -0.005 | [6] 0.033 | [7] -0.003 | [8] -0.028 | [9] -0.009 | [10] -0.012 | [11] -0.014 | [12] -0.032 | [13] -0.013 | [14] -0.003 | [15] 0.012 | [16] -0.025 | [17] -0.003 | [18] 0.002 | [19] -0.026 | [20] -0.032

ABCB10 (UniProt Q9NRK6)
inactive: [1] 0.022 | [2] -0.018 | [3] -0.002 | [4] -0.037 | [5] 0.007 | [6] 0.011 | [7] -0.006 | [8] -0.054 | [9] 0.003 | [10] 0.023 | [11] -0.005 | [12] 0.004 | [13] -0.01 | [14] 0.01 | [15] -0.045 | [16] -0.016 | [17] 0.006 | [18] -0.041 | [19] 0.005 | [20] 0.007

ACTN4 (UniProt O43707)
inactive: [1] 0.042 | [2] 0.048 | [3] 0.014 | [4] -0.091 | [5] 0.067 | [6] 0.095 | [7] -0.022 | [8] -0.058 | [9] -0.021 | [10] 0.004 | [11] -0.013 | [12] 0.039 | [13] -0.01 | [14] 0.006 | [15] -0.005 | [16] -0.008 | [17] -0.006 | [18] -0.041 | [19] -0.011 | [20] -0.026

ABCF1 (UniProt Q8NE71)
inactive: [1] -0.046 | [2] 0.016 | [3] 0.022 | [4] 0.102 | [5] 0.046 | [6] 0.014 | [7] 0.098 | [8] 0.235 | [9] -0.019 | [10] 0.108 | [11] 0.012 | [12] 0.002 | [13] -0.053 | [14] -0.053 | [15] 0.182 | [16] 0.028 | [17] 0.026 | [18] 0.059 | [19] -0.05 | [20] -0.031

ACAA1 (UniProt P09110)
inactive: [1] 0.01 | [2] 0.054 | [3] 0.009 | [4] 0.02 | [5] 0.003 | [6] 0.045 | [7] -0.006 | [8] -0.042 | [9] -0.004 | [10] -0.007 | [11] 0.029 | [12] 0.034 | [13] 0.013 | [14] 0.039 | [15] 0 | [16] 0.017 | [17] 0 | [18] -0.01 | [19] -0.038 | [20] -0.022

ADA (UniProt P00813)
inactive: [1] 0.032 | [2] 0.025 | [3] 0.024 | [4] 0.02 | [5] -0.019 | [6] 0.061 | [7] 0.033 | [8] -0.041 | [9] 0.022 | [10] 0.034 | [11] -0.016 | [12] -0.037 | [13] -0.071 | [14] -0.015 | [15] -0.053 | [16] 0.034 | [17] -0.089 | [18] 0.021 | [19] 0.031 | [20] 0.026

ACTL6A (UniProt O96019)
inactive: [1] 0.035 | [2] 0.009 | [3] -0.007 | [4] -0.012 | [5] -0.029 | [6] 0.012 | [7] -0.018 | [8] 0.012 | [9] -0.01 | [10] 0.035 | [11] -0.005 | [12] -0.032 | [13] 0.013 | [14] -0.017 | [15] -0.036 | [16] 0.017 | [17] 0.028 | [18] 0 | [19] -0.024 | [20] 0.014

Two successive records out of the list so far, for reference:
ABCF1 (UniProt Q8NE71)
inactive: [1] -0.046 | [2] 0.016 | [3] 0.022 | [4] 0.102 | [5] 0.046 | [6] 0.014 | [7] 0.098 | [8] 0.235 | [9] -0.019 | [10] 0.108 | [11] 0.012 | [12] 0.002 | [13] -0.053 | [14] -0.053 | [15] 0.182 | [16] 0.028 | [17] 0.026 | [18] 0.059 | [19] -0.05 | [20] -0.031

ACAA1 (UniProt P09110)
inactive: [1] 0.01 | [2] 0.054 | [3] 0.009 | [4] 0.02 | [5] 0.003 | [6] 0.045 | [7] -0.006 | [8] -0.042 | [9] -0.004 | [10] -0.007 | [11] 0.029 | [12] 0.034 | [13] 0.013 | [14] 0.039 | [15] 0 | [16] 0.017 | [17] 0 | [18] -0.01 | [19] -0.038 | [20] -0.022

More records.

ACOT9 isoform 4 (UniProt Q9Y305)
inactive: [1] -0.085 | [2] 0.115 | [3] -0.057 | [4] 0.04 | [5] 0.05 | [6] 0.198 | [7] 0.074 | [8] 0.094 | [9] -0.068 | [10] 0.088 | [11] 0.065 | [12] -0.215 | [13] -0.034 | [14] -0.03 | [15] 0.151 | [16] -0.049 | [17] 0.029 | [18] 0.049 | [19] 0.011 | [20] -0.03

ACY1 (UniProt Q03154)
inactive: [1] 0.059 | [2] 0.003 | [3] 0.019 | [4] -0.022 | [5] -0.007 | [6] 0.046 | [7] -0.032 | [8] -0.023 | [9] 0.006 | [10] 0 | [11] 0.022 | [12] 0.015 | [13] 0.002 | [14] 0.008 | [15] -0.134 | [16] 0.002 | [17] 0 | [18] -0.014 | [19] -0.103 | [20] -0.02

ADAT2 (UniProt Q7Z6V5)
inactive: [1] -0.009 | [2] 0.001 | [3] 0.012 | [4] -0.052 | [5] 0.017 | [6] -0.016 | [7] -0.027 | [8] -0.059 | [9] 0.004 | [10] -0.023 | [11] 0.039 | [12] -0.008 | [13] 0.064 | [14] 0.105 | [15] -0.088 | [16] 0.023 | [17] 0.024 | [18] -0.041 | [19] -0.082 | [20] 0.035

ABI2 (UniProt Q9NYB9)
inactive: [1] 0.018 | [2] 0.043 | [3] -0.11 | [4] -0.043 | [5] -0.008 | [6] -0.069 | [7] -0.01 | [8] -0.072 | [9] -0.036 | [10] 0.061 | [11] 0.003 | [12] 0.017 | [13] -0.006 | [14] 0.05 | [15] -0.094 | [16] -0.007 | [17] 0.02 | [18] -0.034 | [19] 0.07 | [20] 0.02

ABCF3 (UniProt Q9NUQ8)
inactive: [1] -0.052 | [2] -0.014 | [3] 0.098 | [4] 0.114 | [5] 0.222 | [6] -0.092 | [7] 0.107 | [8] 0.108 | [9] -0.087 | [10] 0.017 | [11] -0.058 | [12] -0.015 | [13] -0.021 | [14] 0.018 | [15] 0.375 | [16] -0.06 | [17] -0.015 | [18] 0.152 | [19] 0.179 | [20] 0.014
